# Most entries show no effect beyond the scatter of the controls.
# Assays:
# Test in all cases: normalised response (% of control), CellTox Green; higher = less cell death (100 = DMSO, 0 = benzethonium chloride kill control)
# Details in all cases: incubation time: 72 h
# HCC1599 = test system: HCC1599
# Protocol: (§1)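 DSRT, 72 h incubation, CellTox Green / CellTiter-Glo readout. Signal is normalised to DMSO and benzethonium chloride controls. Value is the normalised response at dose 2.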
# CAL-120 = test system: CAL-120
# Protocol: as §1
# MDA-MB-436 = test system: MDA-MB-436
# Protocol: as §1
# CAL-85-1 = test system: CAL-85-1
# Protocol: as §1
# Hs578T = test system: Hs578T
# Protocol: as §1
# CAL-51 = test system: CAL-51
# Protocol: as §1
# DU-4475 = test system: DU-4475
# Protocol: as §1
# CAL-148 = test system: CAL-148
# Protocol: as §1
# BT-474 = test system: BT-474
# Protocol: as §1
# BT-549 = test system: BT-549
# Protocol: as §1
# MCF-10A = test system: MCF-10A
# Protocol: as §1
# MDA-MB-453 = test system: MDA-MB-453
# Protocol: as §1
# MDA-MB-231 = test system: MDA-MB-231
# Protocol: as §1
# MFM-223 = test system: MFM-223
# Protocol: as §1
# MDA-MB-468 = test system: MDA-MB-468
# Protocol: as §1
# HDQ-P1 = test system: HDQ-P1
# Protocol: as §1
# HCC1937 = test system: HCC1937
# Protocol: as §1
# HCC1143 = test system: HCC1143
# Protocol: as §1
Structure (SMILES),normalised response (HCC1599),normalised response (CAL-120),normalised response (MDA-MB-436),normalised response (CAL-85-1),normalised response (Hs578T),normalised response (CAL-51),normalised response (DU-4475),normalised response (CAL-148),normalised response (BT-474),normalised response (BT-549),normalised response (MCF-10A),normalised response (MDA-MB-453),normalised response (MDA-MB-231),normalised response (MFM-223),normalised response (MDA-MB-468),normalised response (HDQ-P1),normalised response (HCC1937),normalised response (HCC1143)
N#Cc1ccc(COC[C@H]2O[C@@H](n3c(NCc4ccc(Cl)c(Cl)c4)nc4c(N)ncnc43)[C@H](O)[C@@H]2O)cc1 (10 nM),121%,108%,107%,108%,132%,94.4%,117%,108%,102%,113%,120%,68.8%,94.5%,98.4%,122%,121%,89%,67.3%
CCCCC/C=C/C=C1/C(=O)C=C[C@@H]1C/C=C\CCCC(=O)O [15D-PGJ2] (0.8 nM),96.1%,108%,86.1%,112%,131%,89%,99%,111%,105%,108%,111%,103%,124%,106%,89.3%,115%,–,102%
CC(C)(C)NC(=O)[C@H]1CC[C@H]2[C@@H]3CC[C@H]4NC(=O)C=C[C@]4(C)[C@H]3CC[C@]12C [Finasteride] (10 nM),106%,95%,86.3%,104%,56.2%,76.7%,104%,78.2%,102%,109%,108%,90.2%,103%,97.4%,91.1%,–,89.5%,65.9%
CCCc1cc(C)[nH]c(=O)c1CNC(=O)c1cc(-c2ccnc(N3CCN(C)CC3)c2)cc2c1cnn2C(C)C [GSK343] (10 nM),95.4%,97.5%,60.1%,99.8%,122%,74.8%,91.8%,76.3%,100%,103%,–,90.9%,92.3%,100%,91.8%,121%,98.5%,106%
O=P1(NCCCl)OCCCN1CCCl (stereo unspecified) [Ifosfamide] (10 nM),95.9%,101%,101%,99.5%,–,95.2%,92.4%,103%,96.5%,104%,101%,91.9%,82.5%,84.7%,112%,110%,105%,112%
Cc1ccc([N+](=O)[O-])cc1S(=O)(=O)N(C)/N=C/c1cnc2ccc(Br)cn12 [PIK-75] (10 nM),91.7%,100%,91%,96.8%,115%,46.1%,98.6%,99.1%,100%,89.8%,57.8%,92.5%,–,92.8%,81.2%,110%,82.4%,105%
CS(=O)(=O)c1ccc(C2=C(c3ccccc3)C(=O)OC2)cc1 [Rofecoxib] (10 nM),104%,89.2%,107%,100%,124%,101%,100%,111%,104%,105%,107%,–,105%,91%,123%,105%,121%,97.4%
CO[C@H]1C[C@@H]2CC[C@@H](C)[C@@](O)(O2)C(=O)C(=O)N2CCCC[C@H]2C(=O)O[C@H]([C@H](C)C[C@@H]2CC[C@@H](OC(=O)C(C)(CO)CO)[C@H](OC)C2)CC(=O)[C@H](C)/C=C(\C)[C@@H](O)[C@@H](OC)C(=O)[C@H](C)C[C@H](C)/C=C/C=C/C=C/1C [Temsirolimus] (0.1 nM),114%,107%,97.1%,91.4%,108%,96.9%,111%,83.6%,99.4%,105%,93.3%,108%,75.7%,104%,68.5%,–,76.7%,113%
CCC1=C[C@@H]2CN(C1)Cc1c([nH]c3ccccc13)[C@@](C(=O)OC)(c1cc3c(cc1OC)N(C)[C@H]1[C@@](O)(C(=O)OC)[C@H](OC(C)=O)[C@]4(CC)C=CCN5CC[C@]31[C@@H]54)C2 [Vinorelbine] (10 nM),94.4%,99%,–,99.6%,123%,95.3%,93%,109%,101%,104%,79.3%,95.8%,109%,56.6%,104%,105%,90.6%,72.6%

# Some entries already given, limited to normalised response (CAL-120).
Structure (SMILES) | normalised response (CAL-120)
CCCc1cc(C)[nH]c(=O)c1CNC(=O)c1cc(-c2ccnc(N3CCN(C)CC3)c2)cc2c1cnn2C(C)C [GSK343] (10 nM) | 97.5%
O=P1(NCCCl)OCCCN1CCCl (stereo unspecified) [Ifosfamide] (10 nM) | 101%

# Reference: the supplement of paper PMC4862054
